Results taken from patent US20170306017A1 (VACCINEX, published 2017).
No constants are given. Whether binding was seen depends on the method and setting. Binding can be weak; no strength is given.

Legend:
[1] = target: cynomolgus monkey SEMA4D (cellular target on lysed whole blood cells) (cynomolgus monkey); experiment: flow cytometry-based saturation assay on lysed whole blood of cynomolgus monkeys after a single intravenous injection of MAb 2503
[2] = target: CD100 (species not stated); experiment: antibody cross-blocking ELISA

Binder	binding [1]	binding [2]
MAb 2503 (antibody, V domains shown, also called humanized MAb 67; H2160/L553) VH: QVQLVQSGAEVKKPGSSVKVSCKASGYSFSDYYMHWVRQAPGQGLEWMGQINPTTGGASYNQKFKGKATITVDKSTSTAYMELSSLRSEDTAVYYCARYYYGRHFDVWGQGTTVTVSS VL: DIVMTQSPDSLAVSLGERATINCKASQSVDYDGDSYMNWYQQKPGQPPKLLIYAASNLESGVPDRFSGSGSGTDFTLTISSLQAEDVAVYYCQQSNEDPYTFGQGTKLEIK	binds	
MAb 76 (antibody, IgG2b, V domains shown, also called clone 76-1; 76-1) VH: QVQLQQSGAELAKPGASVKMSCKASGYTFTRYWMHWVKQRPGQGLEWIGYINPSTGYSDYNQKFKDKATLTADKSSSTAYMQLSSLTSEDSAVYYCARDPYGWTMDSWGQGTLVTVSS VL: DIQMTQSPSSLSASLGDTITITCHASQNINVWLSWYQQKPGNIPKLLIYKASNLHTGVPSRFSGSGSGTGFTLTISSLQPEDIATYYCQQGQSYPYTFGGGTKLEIK		binds
